Test results as given in the supplement of paper PMC10338343.
± gives the standard deviation. This is a selection; strong and weak results do not stand in their true shares. The uncertainty is large for many entries. This is one part of the list.

Columns and labels:
[1] = system: MIWI (PIWIL1) piRISC loaded with L1MC piRNA (30 nt); assay: pre-steady-state target cleavage rate (min^-1); higher = faster piRNA-guided slicing of the target; conditions: guide: L1MC piRNA 5'p-UAACUAAAUACUAUGCAAGCUGUAGGUCCU
Summary of the method: (§1)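 At 33 °C in HEPES–potassium acetate buffer, a transcribed, DNA-blocked target RNA library […] was exposed for 0–8 or 0–960 min to 1 nM active affinity-purified piRISC carrying a single synthetic guide, with or without 500 nM GTSF1 partner protein. Uncleaved targets were sequenced and normalised to depth and to weakly complementary targets. With three trials pooled and k3 capped at 0.0001 min^-1, a burst-and-steady-state fit produced the pre-steady-state cleavage rate.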

[2] = system: EfPiwi piRISC loaded with L1MC piRNA (26 nt); assay: pre-steady-state target cleavage rate (min^-1); guide: L1MC piRNA 5'p-UAACUAAAUACUAUGCAAGCUGUAGG; higher = faster piRNA-guided slicing of the target
Summary of the method: as §1

[3] = system: MILI (PIWIL2) piRISC loaded with L1MC piRNA (26 nt); assay: pre-steady-state target cleavage rate (min^-1); MIWI and MILI are mouse PIWI proteins and EfPiwi is from a freshwater sponge; tags in brackets are library labels; higher = faster piRNA-guided slicing of the target; conditions: guide: L1MC piRNA 5'p-UAACUAAAUACUAUGCAAGCUGUAGG
Summary of the method: as §1

[4] = auxiliary factor: 500 nM mouse GTSF1
[5] = auxiliary factor: none (no GTSF1)
[6] = auxiliary factor: 500 nM Ephydatia muelleri Gtsf1
[7] = auxiliary factor: none (no Gtsf1)

Row | Sequence | pre-steady-state target cleavage rate [1, 4] | pre-steady-state target cleavage rate [1, 5] | pre-steady-state target cleavage rate [2, 6] | pre-steady-state target cleavage rate [2, 7] | pre-steady-state target cleavage rate [3, 4] | pre-steady-state target cleavage rate [3, 5]
1 | UCCUGGAUGUGGUUGCUUAGUAUUUAGUUA | 0.00328 ± 0.0059 | 0.00312 ± 0.0034 | 0.00232 ± 0.0064 | 0.000484 ± 0.03 | – | –
2 | UCCUGCUACAGCUUGCAUAGUAUAAUGUAA | 0.188 ± 0.038 | 0.00212 ± 0.0031 | 0.00248 ± 0.002 | 0.00034 ± 0.018 | – | –
3 | UCCUGGAUGUCGUAGCAUAGUAUUUAGUUA | 0.0153 ± 0.005 | 0.00137 ± 0.0052 | 0.00385 ± 0.0025 | 0.000651 ± 0.01 | – | –
4 | UCCUGGAUGUCGAACCAUAGUAUUUAGUUA | 0.00135 ± 0.0031 | 0.000447 ± 0.0084 | 0.00115 ± 0.0066 | 0.00024 ± 0.015 | – | –
5 | UCCUGGAUGUCGUUGCAUACUAUUAAGUUA | 0.000577 ± 0.016 | 0.000199 ± 0.04 | 0.000167 ± 0.017 | 0.000254 ± 0.029 | – | –
6 | UCCUGGAUGUCGUUGCAUAGUAUAUUAGUUA | 0.00156 ± 0.006 | 0.0014 ± 0.0072 | 0.00174 ± 0.0049 | 0.000451 ± 0.019 | – | –
7 | UCCUGGAUGUCGAUGCAUAGUAUGUUAGUUA | 0.00055 ± 0.018 | 0.000685 ± 0.013 | 0.00113 ± 0.0076 | 0.000268 ± 0.037 | – | –
8 | UCCUGGAUGUGCUUGCUAAGUAUUUAGUUA | 0.00289 ± 0.0057 | 0.00181 ± 0.0048 | 0.00158 ± 0.0046 | 0.000836 ± 0.012 | – | –
9 | UCCUGGAUGUCGUUGCAUAGUAAUUUGUUA | 0.000598 ± 0.016 | 0.00109 ± 0.0061 | 0.000356 ± 0.01 | 0.000232 ± 0.03 | – | –
10 | UCCUGGAUGAGCUUGCAUAGUUUUAAGUUA | 0.0288 ± 0.0084 | 0.00673 ± 0.0032 | 0.00123 ± 0.0042 | 0.000258 ± 0.042 | – | –
11 | UCCUGGAACACCUUGCAUAGUUUUUAGUUA | 0.148 ± 0.023 | 0.0142 ± 0.0044 | 0.0022 ± 0.0033 | 0.000453 ± 0.018 | – | –
12 | UCCUGGAUGUCGUUGCAUAGUAGUUAGUUA | 0.000259 ± 0.017 | 0.00158 ± 0.0059 | 0.0019 ± 0.0041 | 0.00386 ± 0.0051 | – | –
13 | UCCUGGAUGUCGAAGCAUAGUAUUUAGUAA | 0.00186 ± 0.006 | 0.000994 ± 0.0064 | 0.00141 ± 0.0042 | 0.000224 ± 0.031 | – | –
14 | UCCUGGAUGUGGAUGCAUAGUAUUUAGUAA | 0.00318 ± 0.0036 | 0.00157 ± 0.0063 | 0.00172 ± 0.0032 | 0.00016 ± 0.042 | – | –
15 | UCCUGGAUGAGCAACCAUAGUAUUUAGUUA | 0.00173 ± 0.005 | 0.000335 ± 0.012 | 0.00159 ± 0.0037 | 0.000276 ± 0.031 | – | –
16 | UCCUGCAACAGCUUCCAUAGUAUUUAGUUA | 0.0524 ± 0.015 | 0.00266 ± 0.0028 | 0.00273 ± 0.0014 | 0.000467 ± 0.01 | – | –
17 | UCCUGGAUGUCCUUGCAUAGUGAUUUAGUUA | 0.00314 ± 0.0046 | 0.00203 ± 0.0043 | 0.0018 ± 0.0043 | 0.000209 ± 0.036 | – | –
18 | UCCUGGAUGUCGUUGCAUAGUAGUUUAGUUA | 0.000647 ± 0.013 | 0.00133 ± 0.0067 | 0.0087 ± 0.005 | 0.0025 ± 0.0048 | – | –
19 | UCCUGGAUGUGCUUGCAUGUAUUUAGUUA | 0.00298 ± 0.005 | 0.00149 ± 0.0053 | 0.00141 ± 0.006 | 0.000347 ± 0.027 | – | –
20 | UCCUGGUACAGCUUGCAUAGUAAUUAGAUA | 0.209 ± 0.042 | 0.00778 ± 0.0021 | 0.00477 ± 0.0031 | 0.000606 ± 0.011 | – | –
21 | UCCUGGAUGUGCUUGCAUACUUUUUAGUUA | 0.00313 ± 0.0059 | 0.00252 ± 0.0038 | 0.00194 ± 0.0042 | 0.000128 ± 0.061 | – | –
22 | UCCUGGAUGUCGUUGCUUAGUAUUUAGUUA | 0.00157 ± 0.0054 | 0.0017 ± 0.0033 | 0.00155 ± 0.0035 | 0.000292 ± 0.027 | – | –
23 | UCCUGGAUGUCGUUGCAUAGUAUUUACAAA | 0.000388 ± 0.017 | 0.000629 ± 0.0097 | 0.000202 ± 0.031 | 0.000238 ± 0.037 | – | –
24 | UCCUGGUACAGCUAGCAUAGUAUUAAGUUA | 0.378 ± 0.051 | 0.00772 ± 0.0027 | 0.00476 ± 0.0024 | 0.000964 ± 0.0078 | – | –

4 entries from above, in CSV form.
Row,Sequence,"pre-steady-state target cleavage rate [1, 4]","pre-steady-state target cleavage rate [1, 5]","pre-steady-state target cleavage rate [2, 6]","pre-steady-state target cleavage rate [2, 7]","pre-steady-state target cleavage rate [3, 4]","pre-steady-state target cleavage rate [3, 5]"
1,UCCUGGAUGUGGUUGCUUAGUAUUUAGUUA,0.00328 ± 0.0059,0.00312 ± 0.0034,0.00232 ± 0.0064,0.000484 ± 0.03,–,–
2,UCCUGCUACAGCUUGCAUAGUAUAAUGUAA,0.188 ± 0.038,0.00212 ± 0.0031,0.00248 ± 0.002,0.00034 ± 0.018,–,–
3,UCCUGGAUGUCGUAGCAUAGUAUUUAGUUA,0.0153 ± 0.005,0.00137 ± 0.0052,0.00385 ± 0.0025,0.000651 ± 0.01,–,–
4,UCCUGGAUGUCGAACCAUAGUAUUUAGUUA,0.00135 ± 0.0031,0.000447 ± 0.0084,0.00115 ± 0.0066,0.00024 ± 0.015,–,–

Further records

Row | Sequence | pre-steady-state target cleavage rate [1, 4] | pre-steady-state target cleavage rate [1, 5] | pre-steady-state target cleavage rate [2, 6] | pre-steady-state target cleavage rate [2, 7] | pre-steady-state target cleavage rate [3, 4] | pre-steady-state target cleavage rate [3, 5]
25 | UCCUGCUACAGCCUGCAUAGUAUUUAGUUA | 0.976 ± 0.05 | 0.0598 ± 0.011 | 0.01 ± 0.0029 | 0.000671 ± 0.011 | – | –
26 | UCCUGGAUGUCCUUGCAAUGUAUUUAGUUA | 0.00194 ± 0.0057 | 0.0014 ± 0.0034 | 0.00104 ± 0.008 | 0.000269 ± 0.028 | – | –
27 | UCCUGGAUGUGCAUGCAUAGUAUUUAGAAA | 0.00306 ± 0.0036 | 0.00207 ± 0.0036 | 0.00304 ± 0.0022 | 0.00073 ± 0.0099 | – | –
28 | UCCUGGUACUGCAUGCAUAGUAUUUAGUUA | 0.556 ± 0.045 | 0.00786 ± 0.0024 | 0.0111 ± 0.0032 | 0.00207 ± 0.0062 | – | –
29 | UCCUGGAUGUCCUUGCUUAGUAUAUAGUUA | 0.00219 ± 0.0049 | 0.00112 ± 0.0052 | 0.000902 ± 0.0065 | 0.000441 ± 0.014 | – | –
30 | UCCUGGAUCAGGUAGCAUAGUAUUUAGUUA | 0.0152 ± 0.0033 | 0.00289 ± 0.0022 | 0.00369 ± 0.0035 | 0.00111 ± 0.0089 | – | –
31 | UCCUGGAUGUCCUUGCAUAGUAAAUAGUAA | 0.00157 ± 0.0068 | 0.00155 ± 0.0048 | 0.000648 ± 0.0075 | 0.000424 ± 0.014 | – | –
32 | UCCUGGCACAGCUUGCAUAGUAUUUAGUUA | – | – | 0.0252 ± 0.0092 | – | 0.289 ± 0.053 | –
33 | UCCUCCUACAGCUUGCAUAGUAUUAACUUA | – | – | 0.00459 ± 0.0029 | – | – | 0.00174 ± 0.0035
34 | UCCUGGUACCGCUUGCAUAGUAUUUAGUUA | – | – | – | 0.0017 ± 0.0065 | 0.293 ± 0.037 | –
35 | UCCUGCUACUGCUUGCAUAGUAUAUAGUUA | – | – | 0.00619 ± 0.0031 | – | – | 0.00235 ± 0.0029
36 | UCCUGGAUGUCGUUGCAAAGUAUUAAGUUA | – | – | 0.000328 ± 0.011 | – | – | 0.00184 ± 0.0039
37 | UCCUGGAUCAGCUUGGAUACUAUUUAGUUA | – | – | 0.00164 ± 0.0026 | – | – | 0.00218 ± 0.0027
38 | UCCUCCUACACCUUGCAUACUAUUUAGUUA | – | – | – | 0.000494 ± 0.01 | – | 0.00272 ± 0.0028
39 | UCCUGGAUGUCGAACGUAAGUAAAUAGUUA | – | – | – | 0.000186 ± 0.025 | 0.000166 ± 0.022 | –
40 | UCCUGGAACAGCUUGCAUAGAAUUUUGUUA | – | – | 0.00229 ± 0.0021 | – | – | 0.00149 ± 0.0038
41 | UCCUGGAUGUCGAACCUAUGUAUUUAGUUA | – | – | 0.000177 ± 0.027 | – | – | 0.000455 ± 0.0084
42 | UCCUCCUACAGCUUGCAUAGUAUUUUCUUA | – | – | 0.00493 ± 0.003 | – | 0.126 ± 0.027 | –
43 | UCCUGGAUGUCGAACGAAAGUUUUUAGUUA | – | – | – | < 0.0001 | 0.000179 ± 0.043 | –
44 | UCCUGGAUGUCGAACGUUACUAUUUAGUUA | – | – | < 0.0001 | – | – | 0.000195 ± 0.018
45 | UCCUGGUACUCCUUGCAUAGUAUUUAGUAA | – | – | 0.00302 ± 0.002 | – | – | 0.00215 ± 0.0034
46 | UCCUGGAUGUCGAACGCUAGUAUUUAGUUA | – | – | 0.000623 ± 0.0074 | – | 0.000136 ± 0.019 | –
47 | UCCUGCUACAGCUUGCAUAGUAUAAAGUAA | – | – | 0.00224 ± 0.0017 | – | – | 0.00208 ± 0.003
48 | UCCUGGAUGUCGAUGCAUAGUAUAUAGAUA | – | – | 0.00114 ± 0.0062 | – | – | 0.000595 ± 0.0087
